## Percent effect of library compounds

The values are deposited in ChEMBL (CHEMBL3988442, “University of Dundee, Small-Polar-MMV Screening Library” (2021)).

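Assay of Toxoplasma gondii numbers, read through their beta-galactosidase reporter with a colour substrate. Compounds at 50 µM. The record gives no direction; the compounds picked for IC50 retests had high values, so higher reads as fewer parasites. About 18,000 compounds were tested under these conditions; 0.94% (about 170) showed 50% or more at least once.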

Each number is a percent effect as filed.
How 0% and 100% were set is not recorded. Most values in the screen are low, and negative values occur.
Compounds were drawn at random from those tested, without regard to their results.

compound,Percent Effect
CCC(C)CS(=O)(=O)NCCCN (centres unmarked),-0.5853%
CC(C)c1noc(CCNC(=O)Cc2ccncc2)n1,7.825%
O=S(=O)(NCC1CCCO1)c1cccc2nonc12 (centres unmarked),-11.12%
COc1cc(C#N)ccc1CN[C@H](CO)C(C)C,-16.66%
CSCC(=O)Nc1ccc(N2C(=O)CCCC2=O)cc1,25.42%
CC(c1ccncc1)N(C)C(=O)CNC(=O)N(C)C (centres unmarked),-1.557%
CCc1[nH]nc(NC(=O)Cc2ccccc2O)c1C,10.45%
CC(C)(C)c1ccc2c(c1)C(N)C(=O)N2 (centres unmarked),13.22%
CCN1CCN(CCS(=O)(=O)c2ccccc2)CC1,-8.504%
CC(C)n1ccnc1CN(C)CC(C)(C)S(C)(=O)=O,-3.977%
CC(CCn1cccn1)NCC1(O)CCOCC1 (centres unmarked),-2.466%
O=C(C1CCS(=O)(=O)C1)N(CC(F)(F)F)C1CCCC1 (centres unmarked),27.47%
CN(CCC1CCCO1)Cc1ccc(N(C)C)nc1 (centres unmarked),6.718%
O[C@H]1CN(Cc2cscn2)C[C@@H]1N1CCCC1,12.25%
CN1CCC(NC(=O)c2nn(C)cc2N)CC1,-5.199%
CN(C(=O)c1ccc(C#N)cn1)c1ncccc1Br,-17.61%
c1ccc2[nH]c(NCCOCC3CCCO3)nc2c1 (centres unmarked),-3.446%
CN(C)CCN(C)S(N)(=O)=O,-13.05%
COc1cccc(CNCCCN2CCCC2=O)c1,-8.217%
NCc1cccc(N2CCCS2(=O)=O)c1,-9.461%
O=C(NCc1cccnc1)c1cn2cccnc2n1,-2.314%
OCc1ccccc1C1CCNCC1,20.42%